Publication PMC3107199

Sequences of proteins named here, by UniProt entry; tags and fusion partners are left off. Residues count along the entry.
UniProt Q05825, residues 32-505: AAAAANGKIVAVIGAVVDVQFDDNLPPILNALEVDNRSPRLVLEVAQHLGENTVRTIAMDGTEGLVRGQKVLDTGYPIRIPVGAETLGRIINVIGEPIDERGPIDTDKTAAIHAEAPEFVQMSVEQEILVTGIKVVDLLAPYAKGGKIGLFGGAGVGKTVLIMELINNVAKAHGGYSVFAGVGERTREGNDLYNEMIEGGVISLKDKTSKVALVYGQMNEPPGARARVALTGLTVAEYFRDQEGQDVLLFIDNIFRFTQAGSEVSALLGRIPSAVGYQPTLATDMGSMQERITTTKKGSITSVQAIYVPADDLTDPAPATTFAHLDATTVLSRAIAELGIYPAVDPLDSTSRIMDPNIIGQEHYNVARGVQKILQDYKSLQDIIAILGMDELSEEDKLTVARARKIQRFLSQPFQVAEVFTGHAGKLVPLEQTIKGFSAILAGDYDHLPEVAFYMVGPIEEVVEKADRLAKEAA
UniProt P45891: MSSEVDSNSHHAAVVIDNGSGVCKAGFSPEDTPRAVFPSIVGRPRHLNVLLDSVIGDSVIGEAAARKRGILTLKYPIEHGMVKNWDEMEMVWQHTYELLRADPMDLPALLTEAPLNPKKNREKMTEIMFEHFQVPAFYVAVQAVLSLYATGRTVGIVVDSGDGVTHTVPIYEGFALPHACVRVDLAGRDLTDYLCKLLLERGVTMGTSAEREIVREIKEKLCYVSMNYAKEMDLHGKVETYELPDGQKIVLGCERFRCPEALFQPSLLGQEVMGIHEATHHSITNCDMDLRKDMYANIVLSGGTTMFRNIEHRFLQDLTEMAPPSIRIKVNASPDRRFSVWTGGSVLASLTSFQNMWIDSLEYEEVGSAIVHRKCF
UniProt P35381, residues 48-552: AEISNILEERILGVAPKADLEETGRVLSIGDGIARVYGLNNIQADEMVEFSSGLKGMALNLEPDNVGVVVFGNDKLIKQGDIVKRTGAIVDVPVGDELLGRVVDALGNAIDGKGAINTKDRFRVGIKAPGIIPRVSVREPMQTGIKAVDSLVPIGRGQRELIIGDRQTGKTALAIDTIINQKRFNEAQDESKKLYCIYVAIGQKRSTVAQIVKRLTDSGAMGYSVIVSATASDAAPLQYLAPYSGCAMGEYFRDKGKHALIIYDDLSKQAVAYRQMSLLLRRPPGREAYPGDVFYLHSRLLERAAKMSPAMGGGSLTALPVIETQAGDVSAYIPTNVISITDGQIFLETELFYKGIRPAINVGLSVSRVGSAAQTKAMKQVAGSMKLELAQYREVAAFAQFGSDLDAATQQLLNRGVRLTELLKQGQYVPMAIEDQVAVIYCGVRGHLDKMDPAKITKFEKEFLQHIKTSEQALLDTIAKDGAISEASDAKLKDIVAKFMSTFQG
UniProt Q00168: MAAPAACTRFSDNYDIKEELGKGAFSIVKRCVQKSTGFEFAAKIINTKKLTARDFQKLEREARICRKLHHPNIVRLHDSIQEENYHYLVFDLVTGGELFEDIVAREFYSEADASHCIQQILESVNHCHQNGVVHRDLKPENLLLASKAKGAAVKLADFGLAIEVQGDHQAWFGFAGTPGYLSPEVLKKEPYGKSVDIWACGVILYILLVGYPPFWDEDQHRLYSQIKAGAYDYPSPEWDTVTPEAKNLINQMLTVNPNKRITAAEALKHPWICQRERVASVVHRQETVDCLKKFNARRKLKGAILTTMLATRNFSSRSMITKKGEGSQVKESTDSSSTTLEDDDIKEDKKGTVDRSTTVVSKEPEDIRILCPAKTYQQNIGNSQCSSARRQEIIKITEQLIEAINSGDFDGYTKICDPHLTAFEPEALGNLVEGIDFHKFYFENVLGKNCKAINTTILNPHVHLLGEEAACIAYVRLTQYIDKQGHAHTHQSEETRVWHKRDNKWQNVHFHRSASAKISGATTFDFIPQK
UniProt P48609: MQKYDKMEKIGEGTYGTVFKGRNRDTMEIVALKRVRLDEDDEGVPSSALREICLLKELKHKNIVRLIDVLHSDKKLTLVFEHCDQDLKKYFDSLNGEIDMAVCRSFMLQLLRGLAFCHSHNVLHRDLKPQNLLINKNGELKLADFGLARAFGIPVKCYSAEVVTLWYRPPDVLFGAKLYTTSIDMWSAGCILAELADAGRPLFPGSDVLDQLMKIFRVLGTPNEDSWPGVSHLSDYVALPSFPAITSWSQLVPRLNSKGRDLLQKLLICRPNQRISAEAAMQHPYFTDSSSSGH
UniProt Q9V8R9: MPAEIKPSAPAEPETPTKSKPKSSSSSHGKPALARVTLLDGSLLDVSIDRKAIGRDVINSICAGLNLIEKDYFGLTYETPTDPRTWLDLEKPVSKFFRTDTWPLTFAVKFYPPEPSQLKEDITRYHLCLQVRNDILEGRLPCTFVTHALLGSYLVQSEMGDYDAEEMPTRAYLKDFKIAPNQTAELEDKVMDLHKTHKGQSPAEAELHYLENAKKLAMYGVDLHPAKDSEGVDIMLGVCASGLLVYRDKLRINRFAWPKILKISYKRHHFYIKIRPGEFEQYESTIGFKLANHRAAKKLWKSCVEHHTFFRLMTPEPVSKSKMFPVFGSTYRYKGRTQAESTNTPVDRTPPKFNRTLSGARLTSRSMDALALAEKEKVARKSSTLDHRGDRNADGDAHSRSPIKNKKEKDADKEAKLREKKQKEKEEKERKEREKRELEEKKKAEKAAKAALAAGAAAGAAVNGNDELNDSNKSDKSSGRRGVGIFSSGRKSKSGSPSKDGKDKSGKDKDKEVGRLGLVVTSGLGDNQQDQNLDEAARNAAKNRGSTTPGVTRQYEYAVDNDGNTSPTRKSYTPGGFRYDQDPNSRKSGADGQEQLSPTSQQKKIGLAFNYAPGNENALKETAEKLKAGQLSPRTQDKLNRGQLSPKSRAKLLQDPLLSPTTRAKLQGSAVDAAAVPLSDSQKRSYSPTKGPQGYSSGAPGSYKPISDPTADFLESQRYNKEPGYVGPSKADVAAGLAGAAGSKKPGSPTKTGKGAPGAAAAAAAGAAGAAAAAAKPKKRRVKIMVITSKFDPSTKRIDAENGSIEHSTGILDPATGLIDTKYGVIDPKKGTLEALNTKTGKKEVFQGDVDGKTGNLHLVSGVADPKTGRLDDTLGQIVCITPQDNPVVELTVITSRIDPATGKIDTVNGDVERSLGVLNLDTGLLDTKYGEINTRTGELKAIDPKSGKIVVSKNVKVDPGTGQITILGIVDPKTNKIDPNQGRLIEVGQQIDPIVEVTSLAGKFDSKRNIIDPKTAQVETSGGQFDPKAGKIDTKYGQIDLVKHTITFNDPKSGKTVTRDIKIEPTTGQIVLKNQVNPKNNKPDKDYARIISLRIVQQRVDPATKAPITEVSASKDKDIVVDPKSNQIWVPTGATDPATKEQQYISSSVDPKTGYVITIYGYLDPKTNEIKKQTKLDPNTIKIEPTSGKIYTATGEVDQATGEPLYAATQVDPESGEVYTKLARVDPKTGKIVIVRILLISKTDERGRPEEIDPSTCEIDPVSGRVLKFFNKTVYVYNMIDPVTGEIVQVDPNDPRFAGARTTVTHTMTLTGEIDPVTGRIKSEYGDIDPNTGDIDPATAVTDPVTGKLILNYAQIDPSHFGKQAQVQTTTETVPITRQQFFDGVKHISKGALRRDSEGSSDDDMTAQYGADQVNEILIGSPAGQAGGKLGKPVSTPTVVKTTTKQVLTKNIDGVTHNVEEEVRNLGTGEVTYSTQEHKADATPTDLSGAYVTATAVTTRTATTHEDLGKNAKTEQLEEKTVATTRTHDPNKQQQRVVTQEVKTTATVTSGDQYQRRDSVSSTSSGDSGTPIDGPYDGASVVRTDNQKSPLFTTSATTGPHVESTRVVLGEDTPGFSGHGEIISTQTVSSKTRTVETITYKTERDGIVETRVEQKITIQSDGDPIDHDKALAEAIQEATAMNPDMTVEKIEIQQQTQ
UniProt P11146: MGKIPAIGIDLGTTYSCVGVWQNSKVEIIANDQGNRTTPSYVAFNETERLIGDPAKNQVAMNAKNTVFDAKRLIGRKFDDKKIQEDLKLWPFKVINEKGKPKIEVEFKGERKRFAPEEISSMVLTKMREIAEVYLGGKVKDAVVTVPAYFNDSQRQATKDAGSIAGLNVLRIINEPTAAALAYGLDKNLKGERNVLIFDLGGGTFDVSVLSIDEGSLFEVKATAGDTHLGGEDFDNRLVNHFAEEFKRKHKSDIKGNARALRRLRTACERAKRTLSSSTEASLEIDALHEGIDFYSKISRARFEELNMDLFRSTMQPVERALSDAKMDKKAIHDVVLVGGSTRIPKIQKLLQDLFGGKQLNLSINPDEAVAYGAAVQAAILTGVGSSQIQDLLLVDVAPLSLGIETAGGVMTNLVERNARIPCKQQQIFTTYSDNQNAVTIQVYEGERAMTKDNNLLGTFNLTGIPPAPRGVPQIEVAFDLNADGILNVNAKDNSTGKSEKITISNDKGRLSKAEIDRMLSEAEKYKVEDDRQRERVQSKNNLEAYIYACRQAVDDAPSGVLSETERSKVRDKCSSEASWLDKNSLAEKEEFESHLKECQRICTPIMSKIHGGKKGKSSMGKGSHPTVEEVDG
UniProt P02825: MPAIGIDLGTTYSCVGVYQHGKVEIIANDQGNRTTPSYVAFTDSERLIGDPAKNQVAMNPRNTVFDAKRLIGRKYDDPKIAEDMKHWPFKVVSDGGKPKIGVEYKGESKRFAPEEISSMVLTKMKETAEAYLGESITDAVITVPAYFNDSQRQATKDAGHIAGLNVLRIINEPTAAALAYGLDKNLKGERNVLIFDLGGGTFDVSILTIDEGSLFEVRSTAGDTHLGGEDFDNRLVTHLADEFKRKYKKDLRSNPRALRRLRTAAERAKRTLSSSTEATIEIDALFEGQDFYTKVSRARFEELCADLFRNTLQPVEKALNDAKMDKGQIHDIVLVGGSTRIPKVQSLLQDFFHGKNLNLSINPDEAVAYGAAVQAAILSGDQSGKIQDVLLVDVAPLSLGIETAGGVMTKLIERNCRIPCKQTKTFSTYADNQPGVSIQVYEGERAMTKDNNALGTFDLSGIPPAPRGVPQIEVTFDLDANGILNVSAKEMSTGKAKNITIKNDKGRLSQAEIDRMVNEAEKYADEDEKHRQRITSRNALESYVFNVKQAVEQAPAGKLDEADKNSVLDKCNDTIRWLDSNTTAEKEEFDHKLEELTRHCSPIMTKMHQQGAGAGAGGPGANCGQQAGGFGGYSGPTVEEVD
UniProt Q9BIR7: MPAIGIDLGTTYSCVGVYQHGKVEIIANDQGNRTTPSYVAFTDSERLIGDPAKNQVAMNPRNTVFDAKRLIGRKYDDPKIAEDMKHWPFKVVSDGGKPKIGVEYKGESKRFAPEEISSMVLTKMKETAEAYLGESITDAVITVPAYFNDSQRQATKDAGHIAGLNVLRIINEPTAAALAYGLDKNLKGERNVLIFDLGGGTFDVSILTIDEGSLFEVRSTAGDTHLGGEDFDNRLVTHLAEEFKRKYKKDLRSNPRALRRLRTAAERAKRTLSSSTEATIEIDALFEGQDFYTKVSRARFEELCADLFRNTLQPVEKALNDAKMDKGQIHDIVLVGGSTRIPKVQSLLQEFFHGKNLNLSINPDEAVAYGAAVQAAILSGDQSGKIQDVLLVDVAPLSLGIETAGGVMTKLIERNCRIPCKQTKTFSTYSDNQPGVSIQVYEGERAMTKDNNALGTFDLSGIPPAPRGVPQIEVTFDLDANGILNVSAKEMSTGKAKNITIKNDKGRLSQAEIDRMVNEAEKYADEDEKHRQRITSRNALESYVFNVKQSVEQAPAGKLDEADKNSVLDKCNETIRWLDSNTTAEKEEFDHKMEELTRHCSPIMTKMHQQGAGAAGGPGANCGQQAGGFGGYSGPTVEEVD
UniProt Q94901: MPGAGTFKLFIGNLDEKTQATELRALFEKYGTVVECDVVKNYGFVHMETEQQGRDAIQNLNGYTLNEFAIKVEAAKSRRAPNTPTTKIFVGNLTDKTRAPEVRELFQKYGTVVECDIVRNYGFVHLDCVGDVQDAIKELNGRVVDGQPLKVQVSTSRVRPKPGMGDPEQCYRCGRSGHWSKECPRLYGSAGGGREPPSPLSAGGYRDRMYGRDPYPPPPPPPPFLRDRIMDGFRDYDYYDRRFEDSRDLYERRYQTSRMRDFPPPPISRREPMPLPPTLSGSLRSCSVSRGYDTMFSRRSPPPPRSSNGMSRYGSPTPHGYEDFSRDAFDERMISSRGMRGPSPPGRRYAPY
UniProt P19351: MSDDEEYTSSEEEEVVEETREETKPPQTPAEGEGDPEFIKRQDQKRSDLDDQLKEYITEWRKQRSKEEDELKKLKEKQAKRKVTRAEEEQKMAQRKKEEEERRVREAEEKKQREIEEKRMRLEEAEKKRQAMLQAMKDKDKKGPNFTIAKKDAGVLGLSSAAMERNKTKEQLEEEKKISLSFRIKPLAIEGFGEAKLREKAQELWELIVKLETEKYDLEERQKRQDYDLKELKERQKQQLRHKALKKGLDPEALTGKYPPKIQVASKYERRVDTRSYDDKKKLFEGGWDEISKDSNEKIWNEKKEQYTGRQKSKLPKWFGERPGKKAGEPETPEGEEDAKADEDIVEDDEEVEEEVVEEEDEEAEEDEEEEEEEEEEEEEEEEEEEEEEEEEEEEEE

B1: X16 (protein, UniProt Q9V3V0 1-258)
chain: MSRHPSDRKVYVGDLGNNARKNDLEYVFGAYGSLRSVWIARNPPGFAFVEFESARDAADAVRGLDGRTVCGRRARVELSTGKYARSGGGGGGGGGGGGGGGLGGRDRGGGGRGDDKCYECGGRGHFARHCRERKARQRRRSNSFSRSRSTSRRRRTRSKSGTRSRSRSAGSVGRRSGRSNGRDENGSASRYSDHERNGSGAVDSPPPPKRRYEDEDDDRVRGSPRSRSRSRSASPAVRRGSPPRRRGDSSASRSVSRD
B2: Cleavage and polyadenylation specificity factor subunit CG7185 (protein, UniProt Q9VSH4 1-652)
chain: MADVVLDLYAEDLDKDFAGQAQDEFGGDGVDLYDDIGGPTESAASGGGGGGTPSADGAAGPGSGEPGERNSGGPNGVYHQSSGSLTPTMNRRYQLYVGNLTWWTTDQDIANSLRDIGVSDLQEVKFFENRANGQSKGFSVISLGSESSLRAVLDQLPKKEMHGQAPVVTYPSKQALTQFESLQKTRPVPPPQQNGPPRGPAPPSMGGGPMPTGHPGGPQGGGPPGHPPRGMNSIMQPGQYRPQHMSQVPQVGGPNSGPPRMQPPMHPQGGLMGNQQPPPRYPSAQGQWPGQRPGGPRPGPPNGPPQRPMFQGGPMGMPVRGPAGPDWRRPPMHGGFPPQGPPRGLPPAPGPGGPHGAPAPHVNPAFFNQPGGPAQHPGMGGPPHGAPGPQPGMNMPPQQGMNMTPQHGPPPQFAQHGPRGPWPPPQGKPPGPFPDPQQMGPQLTEVEFEEVMSRNRTVSSSAIARAVSDAAAGEYSSAIETLVTAISLIKQSKVAHDERCKILISSLQDTLHGIEAKSYNRRERSRSRERSHRSRQRRERSTSRYRERSRERERDRDRERERDGGSYRERSRSRERERQAPDHYRDDSRSVRPRKSPEPVVAEAAEAPSSKRYYEDRERYRSSDRERRDRDRDRDRERERDRDRREEHRSRH
B3: RNA binding protein 1 (protein, UniProt Q02427 1-144)
chain: MPRYREWDLACKVYVGNLGSSASKHEIEGAFAKYGPLRNVWVARNPPGFAFVEFEDRRDAEDATRALDGTRCCGTRIRVEMSSGRSRDRRRGEGGSSGRSGSGRYRITPSARTTSTATSSFYNINNLQQQPSSQPQPATFNLQL
B4: Repressor splicing factor1 (protein, UniProt Q24491 1-200)
chain: MSSMGDQRGTRVYVGNLTDKVKKDDLEGEFTKYGKLNSVWIAFNPPGFAFVEFEHRDDAEKACDILNGSELLGSQLRVEISKGRPRQGRRGGPMDRGGRRGDFGRHSITSGGSGGGGFRQRGSSGSSSRHTERGYSSGRSGASSYNGREGGGSGFNRREVYGGGRDSSRYSSGSSASYGRTGGQSAGRFRSRSPVGNHRF
B5: Histone H1 (protein, UniProt P02255 1-256)
chain: MSDSAVATSASPVAAPPATVEKKVVQKKASGSAGTKAKKASATPSHPPTQQMVDASIKNLKERGGSSLLAIKKYITATYKCDAQKLAPFIKKYLKSAVVNGKLIQTKGKGASGSFKLSASAKKEKDPKAKSKVLSAEKKVQSKKVASKKIGVSSKKTAVGAADKKPKAKKAVATKKTAENKKTEKAKAKDAKKTGIIKSKPAATKAKVTAAKPKAVVAKASKAKPAVSAKPKKTVKKASVSATAKKPKAKTTAAKK
B6: Ribosomal protein S4 (protein, UniProt P41042 1-261)
chain: MARGPKKHLKRLAAPKAWMLDKLGGVFAPRPSTGPHKLRESLPLLIFLRNRLKYALNGAEVTKIVMQRLVKVDGKVRTDPTYPAGYMDVITLEKTGEFFRLVYDVKGRFVIHRISAEEAKYKLCKVKKTQLGAKGVPFLVTHDGRTIRYPDPLIHANDSVQVDIASGKITDYIKFDSGNLCMITGGRNLGRVGTVVNRERHPGSFDIVHIKDSQGHVFATRLTNVFIIGKGNKPYISLPKGKGVKLSIAEERDKRLAAKTH
B7: Tropomyosin 2 (protein, UniProt P09491 1-284)
chain: MDAIKKKMQAMKLEKDNAIDKADTCENQAKDANSRADKLNEEVRDLEKKFVQVEIDLVTAKEQLEKANTELEEKEKLLTATESEVATQNRKVQQIEEDLEKSEERSTTAQQKLLEATQSADENNRMCKVLENRSQQDEERMDQLTNQLKEARMLAEDADTKSDEVSRKLAFVEDELEVAEDRVRSGESKIMELEEELKVVGNSLKSLEVSEEKANQRVEEFKREMKTLSIKLKEAEQRAEHAEKQVKRLQKEVDRLEDRLFNEKEKYKAICDDLDQTFAELTGY
B8: endogenous Hts (protein, UniProt Q02645 1-1156)
chain: MTEVEQPPQNGIDPTAGEDDDNSKARPADIEQDMREMERRKRVEAIMGSKLFREELERIVDSARDGGAGASGILQQLSDIVGVPVSRVGSVFKSSNCMVPINDIRGVESMGYAKGEKILRCKLAATFRLLDLYGWTQGLGAQITARLKVDQEYFLVNPYGLLYHEITASALNKVDMQGQIVEQGTTNFGGNKSHFVLHSVVHAARPDIRCAIYIGCSPVVAISSLKTGLLPLTKDACVLGEITTHAYTGLFDEEERNRLVRSLGPNSKVILLTNHGALCCGETIEEAFFAACHIVQACETQLKLLPVGLDNLVLIPEESRKAIYEQSRRPPEDLEKKFAAVAAAEDGAATAEKDAAEAVPKVGSPPKWRVGGAEFEALMRMLDNAGYRTGYIYRHPLIKSDPPKPKNDVELPPAVSSLGYLLEEEELFRQGIWKKGDIRKGGDRSRWLNSPNVYQKVEVLETGTPDPKKITKWVAEGSPTHSTPVRIEDPLQFVPAGTNPREFKRVQQLIKDNRRADKISAGPQSHILEGVTWDEASRLKDATVSQAGDHVVMMGAASKGIIQRGFQHNATVYKAPYAKNPFDNVTDDELNEYKRTVERKKKSVHGEYTDTDFSESEAVLQAGTKKYPQSEPETEHQVIEIQTQQAPVPRQAEVVLSDALVSQLAQKYAFLYSPGQYMYACMKMAPLMHKVYVIHKVEPVSKHNYPPVNDGNMSIHHNESGAGFMAQESSVISSTPVRNALASVSLPEERNHSILGLSSTPYRTISHFGFNCPLITSPTILLHPEHRSIWQRVAEQREKVVSFIDLTTLSLDNRKLLNVVTSTHPTQCQSQSQSFISEKHIQLEVTPPKRKQRVYSATISSGLDDSLDELDSLMSGLAINMPRSREQDSGLYRSYTFLPSNHALPKDTDANNRDQTDRERPEAEQEESFHCAGDSGIGDSTGRRPRLATTSNDSSIQEAEAYTQGKHVKLTLSSSPTPTATQSPATIEILINVSLRNAECVQTVQTHEQEFRAKLERVIDEEIHYISQQLAFKQRQAELHEQQTTSRAPIATPSFTTMHPPAPASSSSMVHRSNSAPELCHTYSYVAVGDLSTKQDQASPQLPAEGEPLNDILSSLEKELERLLNSVVTAHMLHNKAIIHECRARFSQLADGIVSS
B9: Myosin Alkali light chain (protein, UniProt P06742 1-155)
chain: MADVPKREVENVEFVFEVMGSPGEGIDAVDLGDALRALNLNPTLALIEKLGGTKKRNEKKIKLDEFLPIYSQVKKEKEQGCYEDFIECLKLYDKEENGTMLLAELQHALLALGESLDDEQVETLFADCMDPEDDEGFIPYSQFVQRLMSDPVVFD

Each molecule was assayed against GST-Pur α fusion protein (Drosophila melanogaster) (UniProt Q95RR6) (assay: affinity purification with mass spectrometry; GST-Pur α (GST alone as control) on glutathione beads packed as a column; dialysed and cleared wild-type adult fly head extract (20 mM Hepes pH 7.2, 0.1 M NaCl) run through; washed, eluted with 0.2, 0.6 and 2 M NaCl buffers; SDS gel, LC-MS/MS; only the target purified).
For “ATP synthase β (from UniProt Q05825 32-505)”, the binding was “binds”.
In the case of “Actin related protein 53D (from UniProt P45891 1-376)”, the binding is reported as “binds”.
Aly (from UniProt Q9V3E7) was tested, and the binding was “binds”.
In the case of Bellwether (from UniProt P35381 48-552), the binding is reported as “binds”.
With CG14648 (from UniProt Q9VN21) the binding was “binds”.
With “Calcium/calmodulin-dependent protein kinase II (from UniProt Q00168 1-530)” the binding was “binds”.
Cdk5 (from UniProt P48609 1-294) was tested, and the binding was “binds”.
Coracle (from UniProt Q9V8R9 1-1698) was tested, and the binding was “binds”.
In the case of “Glutathione S transferase E1 (from UniProt A1ZB66)”, the binding is reported as “binds”.
For “Glutathione S transferase E6 (from UniProt A1ZB71)”, the binding was “binds”.
For “Heat Shock protein cognate 2 (from UniProt P11146 1-633)”, the binding was “binds”.
In the case of “Heat Shock protein cognate 4 (from UniProt P11147 1-651)”, the binding is reported as “binds”.
“Heat Shock protein cognate 5 (from UniProt P29845 1-686)” was tested, and the binding was “binds”.
Hsp70 Aa (from UniProt P82910 1-642) was tested, and the binding was “binds”.
With Hsp70 Ab (from UniProt P02825 1-642) the binding was “binds”.
Hsp70 Ba (from UniProt Q8INI8 1-641) was tested, and the binding was “binds”.
For Hsp70 Bb (from UniProt Q9BIS2 1-641), the binding was “binds”.
With Hsp70 Bc (from UniProt Q9BIR7 1-641) the binding was “binds”.
Hsp 68 (from UniProt O97125 1-635) was tested, and the binding was “binds”.
Lark (from UniProt Q94901 1-352) was tested, and the binding was “binds”.
With NinaC (from UniProt P10676 1-1501) the binding was “binds”.
“Retinoid- and fatty acid-binding glycoprotein (from UniProt Q9V496 26-3351)” was tested, and the binding was “binds”.
For “Ribosomal protein L11 (from UniProt P46222 1-184)”, the binding was “binds”.
For “Ribosomal protein S20 (from UniProt P55828 1-120)”, the binding was “binds”.
For “Ribosomal protein l5 (from UniProt Q9W5R8 1-299)”, the binding was “binds”.
In the case of SF2 (from UniProt Q9V3W7), the binding is reported as “binds”.
For “Tropomyosin 1 (from UniProt P06754 1-339)”, the binding was “binds”.
For Upheld (from UniProt P19351 1-397), the binding was “binds”.
With Vasa intronicgene (from UniProt Q9V426) the binding was “binds”.
For “endogenous Rm62 (from UniProt P19109 1-719)”, the binding was “binds”.
For “α Tubulin 84B (from UniProt P06603 1-450)”, the binding was “binds”.
For “α Tubulin 84D (from UniProt P06605 1-450)”, the binding was “binds”.
“α Tubulin 85E (from UniProt P06604 1-449)” was tested, and the binding was “binds”.
“β Tubulin 56D (from UniProt Q24560 1-447)” was tested, and the binding was “binds”.
In the case of “β Tubulin 60D (from UniProt P08841 1-454)”, the binding is reported as “binds”.
With “β Tubulin 85D (from UniProt P61857 1-446)” the binding was “binds”.
For B1, the binding was “binds”.
For B2, the binding was “binds”.
For B3, the binding was “binds”.
In the case of B4, the binding is reported as “binds”.
For B5, the binding was “binds”.
B6 was tested, and the binding was “binds”.
In the case of B7, the binding is reported as “binds”.
For B8, the binding was “binds”.
In the case of B9, the binding is reported as “binds”.

No constants are given. Whether binding was seen depends on the method and setting. In cells and extracts the contact can be indirect. A yes stands for co-enrichment or nearness to the bait. Other partners may have been found. Where a sequence is shown, tags or fusion partners need not be part of it.
